Values joined by “and” are separate entries in the source; they are usually repeats but may differ in a detail not shown here. Equal entries are not always repeated. The list shows a part of the results. This data set is noisy: repeats of one test often differ as much as different tests do.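 HEK293T cells were given each compound shortly before transfection with a reporter in which red mCherry is followed by the SARS-CoV-2 frameshift element and then GFP in the −1 frame, so GFP appears only after frameshifting.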
System: SARS-CoV-2 -1 PRF reporter mCherry-FSE-GFP(-1)
Experiment: mCherry (red) intensity as percent of control; higher = higher upstream reporter expression
Conditions: 10 µM; 24 h; HEK293T

Row | Structure (SMILES) | mCherry
1 | CN1CCN(CCCCN2C(=O)CN(/N=C/c3ccc(-c4ccc(Cl)cc4)o3)C2=O)CC1 [azimilide] | 95.8%
2 | CN(CCOc1ccc(CC2SC(=O)NC2=O)cc1)c1ccccn1 (stereo not given) | 90.2%
3 | CCCCCN(CCCCC)C(=O)C(CCC(=O)O)NC(=O)c1ccc(Cl)c(Cl)c1 (stereo not given) [lorglumide] | 105% and 95.4%
4 | CCOC(=O)COc1ccc2c(=O)cc(-c3ccccc3)oc2c1 [efloxate] | 93.1%
5 | CCN1CC(CCN2CCOCC2)C(c2ccccc2)(c2ccccc2)C1=O (stereo not given) [doxapram] | 101%
6 | CN(Cc1ccc(C(C)(C)C)cc1)Cc1cccc2ccccc12 [butenafine] | 108%
7 | CO[C@@H]1[C@@H](OC(N)=O)[C@@H](O)[C@H](Oc2ccc3c(O)c(NC(=O)c4ccc(O)c(CC=C(C)C)c4)c(=O)oc3c2C)OC1(C)C | 86.9%
8 | Cc1ncc2c(c1O)COC2c1ccc(Cl)cc1 (stereo not given) [cicletanine] | 129%
9 | CCCC(=O)N1CCCN(c2nc(N)c3cc(OC)c(OC)cc3n2)CC1 [bunazosin] | 104%
10 | CCC[S+]([O-])c1ccc2[nH]c(NC(=O)OC)nc2c1 (stereo not given) [Ricobendazole] | 57.8%
11 | OC(CCN1CCCCC1)(c1ccccc1)C1CCCCC1 (stereo not given) [trihexyphenidyl] | 112%
12 | CCOc1ccc(NC(=S)Nc2ccc(OCC)cc2)cc1 [etocarlide] | 22.3%
13 | Cc1cc(S(=O)(=O)O)c2c(C)ccc(C(C)C)cc1-2 [sodium gualenate] | 92.5%
14 | Oc1ncnc2[nH]ncc12 | 84.6%
15 | CCN(CC)CCNC(=O)c1c(C)[nH]c(/C=C2\C(=O)Nc3ccc(F)cc32)c1C [sunitinib] | 101% and 100%
16 | COc1cc(C(=O)OCCCN2CCCN(CCCOC(=O)c3cc(OC)c(OC)c(OC)c3)CC2)cc(OC)c1OC [dilazep] | 43.7%
17 | CN(C)CCC(c1ccc(Br)cc1)c1ccccn1 (stereo not given) [brompheniramine] | 84.8%
18 | NC(N)=Nc1nc(CSCC/C(N)=N/S(N)(=O)=O)cs1 [famotidine] | 113% and 110%
19 | O=C(O)CCCc1ccccc1 [Sodium Phenylbutyrate] | 105%
20 | CC(C)OC(=O)CCC/C=C\C[C@@H]1[C@@H](CC[C@@H](O)CCc2ccccc2)[C@H](O)C[C@@H]1O [latanoprost] | 77.5%

8 compounds out of the list, ordered by length of the SMILES, low to high:
Row | Structure (SMILES) | mCherry
14 | Oc1ncnc2[nH]ncc12 | 84.6%
11 | OC(CCN1CCCCC1)(c1ccccc1)C1CCCCC1 (stereo not given) [trihexyphenidyl] | 112%
12 | CCOc1ccc(NC(=S)Nc2ccc(OCC)cc2)cc1 [etocarlide] | 22.3%
5 | CCN1CC(CCN2CCOCC2)C(c2ccccc2)(c2ccccc2)C1=O (stereo not given) [doxapram] | 101%
3 | CCCCCN(CCCCC)C(=O)C(CCC(=O)O)NC(=O)c1ccc(Cl)c(Cl)c1 (stereo not given) [lorglumide] | 105% and 95.4%
15 | CCN(CC)CCNC(=O)c1c(C)[nH]c(/C=C2\C(=O)Nc3ccc(F)cc32)c1C [sunitinib] | 101% and 100%
16 | COc1cc(C(=O)OCCCN2CCCN(CCCOC(=O)c3cc(OC)c(OC)c(OC)c3)CC2)cc(OC)c1OC [dilazep] | 43.7%
7 | CO[C@@H]1[C@@H](OC(N)=O)[C@@H](O)[C@H](Oc2ccc3c(O)c(NC(=O)c4ccc(O)c(CC=C(C)C)c4)c(=O)oc3c2C)OC1(C)C | 86.9%

Following part.

Row | Structure (SMILES) | mCherry
21 | CCN(CC)CCOC(=O)C1(c2ccccc2)CCCC1 [caramiphen] | 114%
22 | Cc1ncc([N+](=O)[O-])n1C | 105%
23 | O=C(O[C@H]1CN2CCC1CC2)N1CCc2ccccc2[C@@H]1c1ccccc1 | 104%
24 | Clc1ccc(CSC(Cn2ccnc2)c2ccc(Cl)cc2Cl)cc1 (stereo not given) [sulconazole] | 109%
25 | Cc1ncc([N+](=O)[O-])n1CC(O)CCl (stereo not given) [ornidazole] | 85.9%
26 | Cc1ccc(-c2cc(C(F)(F)F)nn2-c2ccc(S(N)(=O)=O)cc2)cc1 [celecoxib] | 94.6% and 92.1%
27 | OC[C@H]1O[C@@H](n2cnc3c2N=CNC[C@H]3O)C[C@@H]1O [pentostatin] | 96.4%
28 | COc1cc(CNC(=O)CCCC/C=C\C(C)C)ccc1O [zucapsaicin] | 83.6%
29 | CC(=O)NC(CC(C)C)C(=O)O (stereo not given) [acetylleucine] | 90%
30 | C[C@@H]1C/C=C/C=C/C=C/C=C/[C@H](O[C@@H]2O[C@H](C)[C@@H](O)[C@H](N)[C@@H]2O)C[C@@H]2O[C@](O)(C[C@@H](O)C[C@H]3O[C@@H]3/C=C/C(=O)O1)C[C@H](O)[C@H]2C(=O)O | 105%
31 | CC(=O)OC/C=C(C)/C=C/C=C(C)/C=C/C1=C(C)CCCC1(C)C | 119%
32 | NC[C@H]1CC[C@H](C(=O)O)CC1 [Tranexamic acid] | 90%
33 | O=C(O)[C@@H]1C[C@H](CP(=O)(O)O)CCN1 (racemic) [selfotel] | 116%
34 | O=c1[nH]c(=O)n([C@H]2C[C@H](O)[C@@H](CO)O2)cc1/C=C/Br [brivudine] | 67.2%
35 | O=C(O)CN1C[C@@H](c2cccs2)SC[C@H](N[C@@H](CCc2ccccc2)C(=O)O)C1=O [temocaprilat] | 76%
36 | COc1ccnc(C[S+]([O-])c2nc3cc(-n4cccc4)ccc3[nH]2)c1C (stereo not given) [ilaprazole] | 106%
37 | CCOc1ccc2ccccc2c1C(=O)N[C@@H]1C(=O)N2[C@@H]1SC(C)(C)[C@@H]2C(=O)O [Unipen] | 97.8%
38 | CC(C)OC(=O)[C@H](C)N[P@](=O)(OC[C@H]1O[C@@H](n2ccc(=O)[nH]c2=O)[C@](C)(F)[C@@H]1O)Oc1ccccc1 [Sofosbuvir] | 113%
39 | CN1CCC(CN2c3ccccc3Sc3ccccc32)C1 (stereo not given) [methdilazine] | 68.8%
40 | CC(C)c1nc(N(C)S(C)(=O)=O)nc(-c2ccc(F)cc2)c1/C=C/[C@@H](O)C[C@@H](O)CC(=O)O [rosuvastatin] | 101%

From the supplement of paper PMC8256030
